For at least one entry, the source does not settle the construct or the ends of the probe. For some of these results: No signal at the amounts used counts as a negative. For some of these results: Weaker means in comparison with the reference protein, sequence or condition of that experiment. For some of these results: At least one verdict rests on a figure or table, not on a statement of the authors. For some of these results: Tags and fusion partners may be left off the protein sequences shown.
Assays:
Experiment in all cases: EMSA
[1] = system: CaARF (Chlorokybus atmophyticus); conditions: 1 uM protein; EMSA: 20 mM HEPES pH 7.8, 50 mM KCl, 100 mM Tris-HCl pH 8.0, 2.5% glycerol, 1 mM DTT, 0.07 mg/ml salmon and herring sperm DNA, 20 nM Cy5 DNA, 30 min at 4 C; 2% agarose; recombinant protein; protein details: N-terminal MBP (pETM40); label: Cy5
[2] = molecular target: T1, AtARF10 (Arabidopsis thaliana) (UniProt Q9SKN5); conditions: 0.25 uM protein; EMSA: 20 mM HEPES pH 7.8, 50 mM KCl, 100 mM Tris-HCl pH 8.0, 2.5% glycerol, 1 mM DTT, 0.07 mg/ml salmon and herring sperm DNA, 20 nM Cy5 DNA, 30 min at 4 C; 2% agarose; recombinant protein; residues 1-693; protein details: His; label: Cy5
T1 sequence (looked up): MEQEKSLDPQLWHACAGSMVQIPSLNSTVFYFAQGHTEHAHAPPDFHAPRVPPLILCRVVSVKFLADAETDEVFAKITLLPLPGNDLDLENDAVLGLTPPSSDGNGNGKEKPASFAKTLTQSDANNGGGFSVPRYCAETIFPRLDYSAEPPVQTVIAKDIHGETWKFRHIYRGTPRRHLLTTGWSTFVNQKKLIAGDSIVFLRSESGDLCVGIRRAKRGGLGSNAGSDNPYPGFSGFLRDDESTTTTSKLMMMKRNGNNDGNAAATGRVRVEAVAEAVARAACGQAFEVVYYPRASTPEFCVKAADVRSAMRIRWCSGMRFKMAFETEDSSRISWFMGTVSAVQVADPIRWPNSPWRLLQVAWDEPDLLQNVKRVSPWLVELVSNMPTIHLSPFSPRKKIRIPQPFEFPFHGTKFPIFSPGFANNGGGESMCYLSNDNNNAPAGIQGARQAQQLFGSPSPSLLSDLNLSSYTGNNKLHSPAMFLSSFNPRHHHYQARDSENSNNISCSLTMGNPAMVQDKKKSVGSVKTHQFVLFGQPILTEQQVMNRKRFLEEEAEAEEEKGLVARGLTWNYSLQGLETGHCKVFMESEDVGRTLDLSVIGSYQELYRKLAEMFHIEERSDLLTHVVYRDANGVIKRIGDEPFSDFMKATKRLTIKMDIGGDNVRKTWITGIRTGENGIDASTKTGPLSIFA

Amino acid sequences for entries named in this document (tags omitted). A change or cut given only in a name is not applied to a line headed by its entry.
UniProt Q94JM3: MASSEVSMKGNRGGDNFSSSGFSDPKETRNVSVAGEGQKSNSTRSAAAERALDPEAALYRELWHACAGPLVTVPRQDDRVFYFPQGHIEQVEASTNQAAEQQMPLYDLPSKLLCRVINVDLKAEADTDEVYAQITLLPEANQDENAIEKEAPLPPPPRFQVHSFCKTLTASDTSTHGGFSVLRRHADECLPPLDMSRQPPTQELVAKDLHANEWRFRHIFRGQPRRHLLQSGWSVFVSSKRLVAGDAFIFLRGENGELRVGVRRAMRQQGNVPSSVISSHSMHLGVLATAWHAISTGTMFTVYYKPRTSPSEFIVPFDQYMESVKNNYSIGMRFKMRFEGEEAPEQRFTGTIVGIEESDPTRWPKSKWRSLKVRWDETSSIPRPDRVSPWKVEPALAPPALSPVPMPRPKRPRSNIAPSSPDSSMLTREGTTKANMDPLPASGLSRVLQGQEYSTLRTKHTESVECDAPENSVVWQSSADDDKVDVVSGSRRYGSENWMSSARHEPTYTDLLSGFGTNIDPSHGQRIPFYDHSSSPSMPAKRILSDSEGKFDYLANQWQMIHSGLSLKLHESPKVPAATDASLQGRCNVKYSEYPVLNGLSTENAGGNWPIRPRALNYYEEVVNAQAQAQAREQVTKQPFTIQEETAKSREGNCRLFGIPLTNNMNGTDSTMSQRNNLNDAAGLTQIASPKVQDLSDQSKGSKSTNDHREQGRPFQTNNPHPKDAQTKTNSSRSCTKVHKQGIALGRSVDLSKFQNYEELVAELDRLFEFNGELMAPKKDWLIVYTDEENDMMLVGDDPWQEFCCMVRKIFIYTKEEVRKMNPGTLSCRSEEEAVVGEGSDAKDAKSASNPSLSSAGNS

[3] = molecular target: AtARF2 (Arabidopsis thaliana) (UniProt Q94JM3); conditions: 0.25 uM protein; EMSA: 20 mM HEPES pH 7.8, 50 mM KCl, 100 mM Tris-HCl pH 8.0, 2.5% glycerol, 1 mM DTT, 0.07 mg/ml salmon and herring sperm DNA, 20 nM Cy5 DNA, 30 min at 4 C; 2% agarose; recombinant protein; residues 1-859; protein details: His; label: Cy5
[4] = molecular target: T2, AtARF5 (Arabidopsis thaliana) (UniProt P93024); conditions: 0.25 uM protein; EMSA: 20 mM HEPES pH 7.8, 50 mM KCl, 100 mM Tris-HCl pH 8.0, 2.5% glycerol, 1 mM DTT, 0.07 mg/ml salmon and herring sperm DNA, 20 nM Cy5 DNA, 30 min at 4 C; 2% agarose; recombinant protein; residues 1-902; protein details: His; label: Cy5
T2 sequence (looked up): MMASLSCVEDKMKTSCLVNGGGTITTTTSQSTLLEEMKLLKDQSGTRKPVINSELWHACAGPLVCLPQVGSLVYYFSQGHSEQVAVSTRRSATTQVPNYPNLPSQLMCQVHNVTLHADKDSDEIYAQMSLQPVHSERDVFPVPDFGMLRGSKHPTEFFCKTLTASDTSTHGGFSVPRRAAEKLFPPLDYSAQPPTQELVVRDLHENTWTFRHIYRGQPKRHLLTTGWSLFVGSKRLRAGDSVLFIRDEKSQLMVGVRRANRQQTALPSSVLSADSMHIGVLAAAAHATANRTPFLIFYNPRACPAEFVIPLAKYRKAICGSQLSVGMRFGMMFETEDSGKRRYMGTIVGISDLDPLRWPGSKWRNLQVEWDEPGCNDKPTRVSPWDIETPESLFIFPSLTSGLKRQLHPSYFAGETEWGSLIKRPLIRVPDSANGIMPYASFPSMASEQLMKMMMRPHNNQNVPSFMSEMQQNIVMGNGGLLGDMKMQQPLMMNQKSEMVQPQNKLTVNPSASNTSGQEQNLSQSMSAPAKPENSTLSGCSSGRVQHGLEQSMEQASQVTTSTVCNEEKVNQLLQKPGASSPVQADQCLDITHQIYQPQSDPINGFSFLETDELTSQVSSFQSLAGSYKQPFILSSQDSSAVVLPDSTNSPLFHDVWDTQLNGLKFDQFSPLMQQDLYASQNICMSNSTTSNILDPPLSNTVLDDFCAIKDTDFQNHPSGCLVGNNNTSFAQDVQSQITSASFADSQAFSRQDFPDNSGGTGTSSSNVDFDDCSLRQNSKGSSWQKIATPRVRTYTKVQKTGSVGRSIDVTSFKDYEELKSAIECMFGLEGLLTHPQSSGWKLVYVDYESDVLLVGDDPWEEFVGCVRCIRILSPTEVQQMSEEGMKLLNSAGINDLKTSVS

[5] = system: CaARF-DBD (Chlorokybus atmophyticus); conditions: 0.5 uM protein; EMSA: 20 mM HEPES pH 7.8, 50 mM KCl, 100 mM Tris-HCl pH 8.0, 2.5% glycerol, 1 mM DTT, 0.07 mg/ml salmon and herring sperm DNA, 20 nM Cy5 DNA, 30 min at 4 C; 2% agarose; recombinant protein; protein details: N-terminal MBP (pETM40); label: Cy5

| Sequence | binding result [1] | binding result [2] | binding result [3] | binding result [4] | binding result [5] |
| --- | --- | --- | --- | --- | --- |
| GATACACGCTTGTCGGCAAGCCGACAACCACTCA (double strand) [ER4] | binds | binds | binds more weakly | binds more weakly | – |
| GATACACGCTTGTCGGCAAAGCCGACAACCACTCA (double strand) [ER5] | binds | binds | binds more weakly | binds more weakly | – |
| GATACACGCAATGTCGGCCTTTTGTCGGTTCCACTCA (double strand) [DR5] | – | – | – | – | binds |
| GATACACGCTTGTCTCCCAAAGGCGG (double strand) [ARF (single AuxRE)] | – | – | – | – | no binding |
| GATACACGCTTGTCGGCCAAGGCCGACAACCACTCA (double strand) [ER6] | binds | binds | binds more weakly | binds more weakly | – |
| GATACACGCTTGTCGGCCAAGAAGGCCGACAACCACTCA (double strand) [ER9] | binds | binds | binds more weakly | binds more weakly | – |
| GATACACGCTTGTCGGCCAAAGGCGGTGTACCACTCA (double strand) [SS (single AuxRE site)] | no binding | – | – | – | – |

Source: paper PMC6797205
